Results: paper PMC7744417
These are yes or no findings as the source states them, for the method shown. Binding seen in cells or lysates may run through a third protein. Some binding calls cover weakened binding; strength is not graded here. Where a sequence is shown, tags or fusion partners need not be part of it.

T1: Flag-FHA (FHA domain containing protein SiRe_1010), co-expressed in E. coli (Sulfolobus islandicus) (UniProt F0NGR1)
T1 sequence: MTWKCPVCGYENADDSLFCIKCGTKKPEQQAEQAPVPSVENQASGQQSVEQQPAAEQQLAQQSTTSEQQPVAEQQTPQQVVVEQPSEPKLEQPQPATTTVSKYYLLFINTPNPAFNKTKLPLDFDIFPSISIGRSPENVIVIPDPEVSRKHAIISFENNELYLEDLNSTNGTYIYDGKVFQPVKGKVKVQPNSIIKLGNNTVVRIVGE

T2: His-FHA (FHA domain containing protein SiRe_1010), co-expressed in S. islandicus (Sulfolobus islandicus) (UniProt F0NGR1)
T2 sequence: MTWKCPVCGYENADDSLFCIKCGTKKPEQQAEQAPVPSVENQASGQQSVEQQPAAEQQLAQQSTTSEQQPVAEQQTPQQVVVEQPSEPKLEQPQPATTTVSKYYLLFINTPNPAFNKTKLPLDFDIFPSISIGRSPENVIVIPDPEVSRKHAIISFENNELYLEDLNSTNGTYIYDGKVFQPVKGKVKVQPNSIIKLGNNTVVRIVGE

B1: His-vWA2 (von Willebrand type A domain protein SiRe_1011), co-expressed in E. coli (protein, UniProt F0NGR2 1-356)
chain: MTIAINLKQSHTYAYSDRPTEVGFVIYITPQQSSVTSSIHYIIMIDNSPSMRGEKLNTAVQSAQKLLYNLNEGNYVTLILFSNHPEIKYQGPAKGIITFDVGKGYTTRLHEAVSFTINLAKQSQVPTKIIMLTDGKPTDKRNVKDYEKLDIPPNTQIITIGIGNDYNERILKKLADRSSGKFYHIKDISELPNIFESQRTTSTYAHNLNLIVPQGFMPFNYDLPIRIPIVEKLIAVYGSFVIPAGKEPYTITFSADYIDPIDNQRKTVTKSVILQRGNPQFVESHADRDVILEIRYYRLLREYSEALEAGKDATKVLNELKRVAEETRRPELIEETKKLSNDSKSDLSEITRKMRQ
B2: Flag-vWA2 (von Willebrand type A domain protein SiRe_1011), co-expressed in S. islandicus (protein, UniProt F0NGR2 1-356)
chain: MTIAINLKQSHTYAYSDRPTEVGFVIYITPQQSSVTSSIHYIIMIDNSPSMRGEKLNTAVQSAQKLLYNLNEGNYVTLILFSNHPEIKYQGPAKGIITFDVGKGYTTRLHEAVSFTINLAKQSQVPTKIIMLTDGKPTDKRNVKDYEKLDIPPNTQIITIGIGNDYNERILKKLADRSSGKFYHIKDISELPNIFESQRTTSTYAHNLNLIVPQGFMPFNYDLPIRIPIVEKLIAVYGSFVIPAGKEPYTITFSADYIDPIDNQRKTVTKSVILQRGNPQFVESHADRDVILEIRYYRLLREYSEALEAGKDATKVLNELKRVAEETRRPELIEETKKLSNDSKSDLSEITRKMRQ
B3: His-vWA1 (von Willebrand type A domain protein SiRe_1008), co-expressed in E. coli (protein, UniProt F0NGQ9 1-380)
chain: MTLSLRVDTSHKYSFSGDVRYIFKVLLVPEKLGSATGFHYIVALDTSGSMTGYKIELAKQGAIELFKRIPKGNKVSFITFSSNVTVIKEFVDPLDLTNEILQIAAGGQTALYTAILTANSLAKKYQMPTYLLLLTDGNPTDETNVGNYLKLPYFEKMQVYSFGIGDDYNEQLLQSISDKTSGVMYHISDANEIPQKLPQKAVTQIAAKNVTVDIAAEGNVKLLNYATTPVKVNGIENVIKIFGETILPANYEGSFLTVKVNYEDPVTNKLESLLQVVQVKRAQDQNTFVSGINNDVINEYRYYELLDKYAKQVQAEQLIEATKTLNQLNEIAQQTRRIDFMETTRRLSEGLETTKRIGTVEQTKRLSKEVTSEVTRKLRE
B4: Flag-vWA1 (von Willebrand type A domain protein SiRe_1008), co-expressed in S. islandicus (protein, UniProt F0NGQ9 1-380)
chain: MTLSLRVDTSHKYSFSGDVRYIFKVLLVPEKLGSATGFHYIVALDTSGSMTGYKIELAKQGAIELFKRIPKGNKVSFITFSSNVTVIKEFVDPLDLTNEILQIAAGGQTALYTAILTANSLAKKYQMPTYLLLLTDGNPTDETNVGNYLKLPYFEKMQVYSFGIGDDYNEQLLQSISDKTSGVMYHISDANEIPQKLPQKAVTQIAAKNVTVDIAAEGNVKLLNYATTPVKVNGIENVIKIFGETILPANYEGSFLTVKVNYEDPVTNKLESLLQVVQVKRAQDQNTFVSGINNDVINEYRYYELLDKYAKQVQAEQLIEATKTLNQLNEIAQQTRRIDFMETTRRLSEGLETTKRIGTVEQTKRLSKEVTSEVTRKLRE

Key:
[1] = molecular target: T1, Flag-FHA (FHA domain containing protein SiRe_1010), co-expressed in E. coli (Sulfolobus islandicus); experiment: pull-down; FHA and vWA co-expressed in E. coli; supernatant of heat-treated cell extract on anti-Flag beads in buffer A (50 mM Tris-HCl pH 7.5, 150 mM NaCl, 5% glycerol), 25°C, 1 h; eluted with 0.1 M Gly-HCl; Western blot with anti-His antibody
[2] = molecular target: T2, His-FHA (FHA domain containing protein SiRe_1010), co-expressed in S. islandicus (Sulfolobus islandicus); experiment: pull-down; His-FHA and Flag-vWA co-expressed in S. islandicus; cell extract on Ni-NTA agarose, eluted with lysis buffer with 250 mM imidazole; Western blot with anti-Flag antibody

Binder | binding [1] | binding [2]
B1 | binds | –
B2 | – | binds
B3 | binds | –
B4 | – | binds
